Laboratory results from US20050042227A1.
These are yes or no findings as the source states them, for the method shown. Some binding calls cover weakened binding; strength is not graded here.

The chains behind the UniProt entries cited, without tags or fusion partners. Where a name states a change or a piece, a line headed by the entry shows the natural chain unless it says otherwise. Residues count along the entry.
UniProt Q07954, residues 806-1183: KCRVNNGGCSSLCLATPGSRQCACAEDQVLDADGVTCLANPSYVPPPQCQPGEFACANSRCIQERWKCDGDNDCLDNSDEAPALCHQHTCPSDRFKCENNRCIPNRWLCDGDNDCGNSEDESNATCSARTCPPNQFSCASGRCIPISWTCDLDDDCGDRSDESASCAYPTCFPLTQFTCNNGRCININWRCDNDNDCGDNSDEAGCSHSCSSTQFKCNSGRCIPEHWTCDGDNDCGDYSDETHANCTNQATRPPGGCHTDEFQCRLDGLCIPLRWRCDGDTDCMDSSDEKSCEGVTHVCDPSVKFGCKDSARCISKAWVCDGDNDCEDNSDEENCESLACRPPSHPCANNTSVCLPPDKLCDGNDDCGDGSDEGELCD
UniProt P30533: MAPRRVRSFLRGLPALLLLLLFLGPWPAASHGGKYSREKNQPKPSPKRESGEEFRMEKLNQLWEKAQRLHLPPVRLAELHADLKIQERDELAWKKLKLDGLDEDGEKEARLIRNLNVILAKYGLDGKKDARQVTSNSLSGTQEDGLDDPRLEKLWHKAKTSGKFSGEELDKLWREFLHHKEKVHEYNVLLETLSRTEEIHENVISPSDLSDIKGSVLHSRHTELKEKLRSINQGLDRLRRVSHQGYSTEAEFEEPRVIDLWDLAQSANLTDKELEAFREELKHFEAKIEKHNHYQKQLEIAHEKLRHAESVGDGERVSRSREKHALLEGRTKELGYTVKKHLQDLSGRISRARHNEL

Key:
[1] = biological target: sLRP2, the entire second ligand-binding domain of human LRP1 (human) (UniProt Q07954); experiment: dot blot, LRP binding domain 2 on PVDF, overlay, antibody and chemiluminescent detection
[2] = biological target: sLRP2, the entire second ligand-binding domain of human LRP1 (human) (UniProt Q07954); experiment: ligand blot, sLRP2 spotted on membrane, detection with anti-RAP antibody

With “receptor-associated protein (RAP) (from UniProt P30533 35-354) (ligand)” the binding [1] was “binds” and the binding [2] was “binds”.
